# According to PubChem BioAssay (NCATS):
# By UniProt entry, the sequences of proteins in these tests, tags left out. Residues count along the entry.
# UniProt Q8JUX6, 220-798 limits assumed: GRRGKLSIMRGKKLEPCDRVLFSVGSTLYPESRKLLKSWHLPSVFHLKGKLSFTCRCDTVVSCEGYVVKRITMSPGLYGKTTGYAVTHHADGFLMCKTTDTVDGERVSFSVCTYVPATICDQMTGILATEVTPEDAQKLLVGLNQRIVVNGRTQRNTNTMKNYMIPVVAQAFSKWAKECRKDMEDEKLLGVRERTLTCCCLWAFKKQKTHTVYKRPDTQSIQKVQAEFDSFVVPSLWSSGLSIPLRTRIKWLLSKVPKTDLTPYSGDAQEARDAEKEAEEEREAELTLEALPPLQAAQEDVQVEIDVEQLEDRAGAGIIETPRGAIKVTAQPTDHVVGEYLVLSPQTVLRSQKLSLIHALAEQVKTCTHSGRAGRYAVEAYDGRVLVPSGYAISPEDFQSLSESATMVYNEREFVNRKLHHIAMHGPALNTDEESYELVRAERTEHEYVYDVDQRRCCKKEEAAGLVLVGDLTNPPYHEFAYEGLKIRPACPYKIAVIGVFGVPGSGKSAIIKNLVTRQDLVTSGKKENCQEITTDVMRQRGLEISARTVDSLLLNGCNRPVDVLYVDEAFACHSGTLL
# This list was built around the results that the source calls inconclusive (neither active nor inactive); the mix of calls is not that of the screen. For some of these results: Potencies of inconclusive entries are doubtful fits and often do not repeat. Activity calls are given as the source filed them. Unless noted, calls come from the whole dose curve; as a rule, active = well fitted curve in the direction sought with a large enough effect; inconclusive = small, poorly fitted or top-dose-only effect, or another doubt; inactive = no such curve, though single readings can be large; an effect the other way counts as inactive or inconclusive.
# What was measured:
# [1] = Quantitative highthroughput screen to assess conditional lethalithy of NOMO1 cells grown in RPMI1640 with untreated serum (RPMI+s) (AID 1963876); note: nearly all actives have a fitted effect of over 35% in size; note: potency is the fitted concentration of half-maximal effect
# Summary of the method: (§1)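 Each medium arm—HPLM with 10% dialyzed FBS, or RPMI1640 with 5 mM glucose and 10% untreated or dialyzed FBS—was screened against an 11-point, 3-fold compound titration for 48 h at 37 °C, with CellTiter-Glo luminescence as endpoint.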
# [2] = Quantitative highthroughput screen to assess conditional lethalithy of NOMO1 cells grown in RPMI1640 with dialyzed fetal bovine serum (RPMI+ds) (AID 1963877); note: nearly all actives have a fitted effect of over 30% in size; note: potency is the fitted concentration of half-maximal effect
# Summary of the method: as §1
# [3] = Quantitative highthroughput screen to assess conditional lethalithy of P12 Ichikawa cells grown in RPMI1640 with dialyzed fetal bovine serum (RPMI+ds) (AID 1963880); conditions: Potency: P12-Ichikawa viability; note: nearly all actives have a fitted effect of over 35% in size; note: potency is the fitted concentration of half-maximal effect
# Summary of the method: as §1
# [4] = Quantitative highthroughput screen to assess conditional lethalithy of P12 Ichikawa cells grown in RPMI1640 with untreated serum (RPMI+s) (AID 1963881); conditions: Potency: viability; note: nearly all actives have a fitted effect of over 35% in size; note: potency is the fitted concentration of half-maximal effect
# Summary of the method: as §1
# [5] = Quantitative highthroughput screen to assess conditional lethalithy of SEM cells grown in Human Plasma-Like Medium with dialyzed fetal bovine serum (HPLM+ds) (AID 1963882); note: nearly all actives have a fitted effect of over 35% in size; note: potency is the fitted concentration of half-maximal effect
# Summary of the method: as §1
# [6] = Quantitative highthroughput screen to assess conditional lethalithy of SEM cells grown in RPMI1640 with unreated serum (RPMI+s) (AID 1963883); note: nearly all actives have a fitted effect of over 35% in size; note: potency is the fitted concentration of half-maximal effect
# Summary of the method: as §1
# [7] = Quantitative highthroughput screen to assess conditional lethalithy of NOMO1 cells grown in Human Plasma-Like Medium with dialyzed fetal bovine serum (HPLM+ds) (AID 1963878); note: nearly all actives have a fitted effect of over 35% in size; note: potency is the fitted concentration of half-maximal effect
# Summary of the method: as §1
# [8] = Quantitative highthroughput screen to assess conditional lethalithy of P12 Ichikawa cells grown in Human Plasma-Like Medium with dialyzed fetal bovine serum (HPLM+ds) (AID 1963879); conditions: Potency: viability; note: nearly all actives have a fitted effect of over 35% in size; note: potency is the fitted concentration of half-maximal effect
# Summary of the method: as §1
# [9] = Quantitative highthroughput screen to assess conditional lethalithy of SEM cells grown in RPMI1640 with dialyzed fetal bovine serum (RPMI+ds) (AID 1963884); note: nearly all actives have a fitted effect of over 35% in size; note: potency is the fitted concentration of half-maximal effect
# Summary of the method: as §1
# [10] = Viability qHTS for spleen associated tyrosine kinase inhibitor (SYKi) drug resistant MV4-11 cells (AID 1963824); note: nearly all actives have a fitted effect of over 35% in size
# Summary of the method: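 SYK-inhibitor-resistant MV4-11 AML cells were seeded at 500 per well onto compound and cultured 72 hours (37 °C, 5% CO2). CellTiter-Glo was then added, and after 10 min at room temperature, luminescence gave viability.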
# [11] = target: Polyprotein P1234 (Chikungunya virus (strain S27-African prototype)) (UniProt Q8JUX6); experiment: Secondary cell base assay for inhibitors of NSP2Pro Chikungunya virus (CHIKV) (AID 1964100; calls by dose curve; note: nearly all actives have a fitted effect of over 70% in size)
# [12] = target: Polyprotein P1234 (Chikungunya virus (strain S27-African prototype)) (UniProt Q8JUX6); experiment: Selectivity profile for inhibitors of NSP2Pro chikungunya virus (CHIKV): Full length NSP2 enzyme counterscreen (CHIKV-NSP2) (AID 1964101; calls by dose curve; note: nearly all actives have a fitted effect of over 65% in size); conditions: Full-length CHIKV NSP2 protease enzymatic counterscreen; series mostly up to 50.7 µM
# [13] = target: Polyprotein P1234 (Chikungunya virus (strain S27-African prototype)) (UniProt Q8JUX6); experiment: Selectivity profile for inhibitors of NSP2Pro chikungunya virus (CHIKV): Endogenous NS2/3 peptide Counterscreen (AID 1964103; calls by dose curve; note: nearly all actives have a fitted effect of over 55% in size)
smiles,measurement,setting,value
C[C@@H]1[C@@H](CC(C[C@H]2O[C@@H]3O[C@]4(C)CC[C@@H]5[C@H](C)CC[C@@H]([C@H]2C)[C@@]35OO4)C[S+](=O)([O-])c2ccc(COC(=O)N(C)C)cc2)O[C@@H]2O[C@]3(C)CC[C@H]4[C@H](C)CC[C@@H]1[C@@]24OO3 (stereo partly drawn),Potency,[1],active: 0.833 µM
same,Potency,[2],"inconclusive: 0.332 µM [cytotoxic, full curve]"
same,Potency,[3],"inconclusive: 0.372 µM [cytotoxic, full curve]"
same,Potency,[4],"inconclusive: 1.05 µM [cytotoxic, full curve]"
same,Potency,[5],active: 0.743 µM
same,Potency,[6],active: 0.418 µM
C=C1C[C@H]2[C@H]3CCC(=O)[C@@]3(C)CC[C@@H]2[C@@]2(C)C=CC(=O)C=C12,Potency,[2],"inconclusive: 20.9 µM [cytotoxic, single point]"
same,Potency,[7],"inconclusive: 37.2 µM [cytotoxic, single point]"
same,Potency,[8],inactive
same,Potency,[5],"inconclusive: 11.8 µM [cytotoxic, single point]"
CC(C)(O)C=CC(=O)[C@](C)(O)[C@H]1[C@H](O)C[C@]2(C)[C@@H]3CC=C4[C@@H](C=C(O)C(=O)C4(C)C)[C@]3(C)C(=O)C[C@@]12C,Potency,[1],active: 0.187 µM
Oc1ccc2c3c1O[C@H]1c4[nH]c5c(c4C[C@@]4(O)[C@@H](C2)N(CC2CC2)CC[C@]314)C[C@@]1(O)[C@H]2Cc3ccc(O)c4c3[C@@]1(CCN2CC1CC1)[C@H]5O4,Potency,[2],inactive
same,Potency,[3],inactive
same,Potency,[9],inactive
C1=C2CCCN[C@H]2[C@@H]2C[C@H]1[C@@H]1CCCCN1C2,Potency,[2],"inconclusive: 13.2 µM [cytotoxic, partial curve]"
same,Potency,[7],inactive
same,Potency,[4],"inconclusive: 37.2 µM [cytotoxic, single point]"
same,Potency,[6],inactive
same,Potency,[9],inactive
C[C@@H]1[C@@H](C(=O)C[C@H]2O[C@@H]3O[C@]4(C)CC[C@@H]5[C@H](C)CC[C@@H]([C@H]2C)[C@@]35OO4)O[C@@H]2O[C@]3(C)CC[C@H]4[C@H](C)CC[C@@H]1[C@@]24OO3,Potency,[1],"inconclusive: 14.8 µM [cytotoxic, partial curve]"
same,Potency,[7],"inconclusive: 16.6 µM [cytotoxic, partial curve]"
same,Potency,[8],active: 23.5 µM
same,Potency,[9],active: 23.5 µM
C1=C(c2cnc[nH]2)c2ccsc2CC1,Potency,[10],inactive
same,Potency,[11],inactive
same,Potency,[12],inactive
same,Potency,[13],inactive
C=C[C@@H]1CN2CCC1C[C@@H]2[C@@H](O)c1ccnc2ccccc12 (stereo partly drawn),Potency,[2],inactive
same,Potency,[4],inactive
same,Potency,[9],"inconclusive: 20.9 µM [cytotoxic, partial curve, poor fit]"
CC(=O)OCC1=C(C(=O)O)N2C(=O)[C@@H](N)[C@@H]2SC1,Potency,[1],"inconclusive: 0.332 µM [cytotoxic, full curve]"
same,Potency,[2],"inconclusive: 0.332 µM [cytotoxic, full curve]"
same,Potency,[7],"inconclusive: 0.372 µM [cytotoxic, full curve]"
same,Potency,[4],active: 1.48 µM
c1cc2c(cc1[C@H]1OC[C@H]3[C@H]1CO[C@H]3c1ccc3c(c1)OCO3)OCO2,Potency,[1],inactive
same,Potency,[8],inactive
same,Potency,[4],inactive
same,Potency,[9],"inconclusive: 18.7 µM [cytotoxic, single point]"
C[C@H]([C@H](O)CCC(C)(C)O)[C@H]1CC[C@@]2(O)C3=CC(=O)[C@@H]4C[C@@H](O)[C@@H](O)C[C@]4(C)[C@@H]3CC[C@]12C,Potency,[7],inactive
same,Potency,[8],inactive
CC(=Cc1csc(C)n1)[C@@H]1C[C@H]2O[C@]2(C)CCC[C@H](C)[C@@H](O)[C@@H](C)C(=O)C(C)(C)[C@@H](O)CC(=O)O1,Potency,[7],inactive
same,Potency,[8],inactive
same,Potency,[3],inactive
same,Potency,[5],inactive
same,Potency,[9],inactive
C[C@]12COC(=O)C[C@@H]1CC[C@@H]1[C@H]2CC[C@@]2(C)[C@H]1CC[C@]2(C)O,Potency,[1],inactive
same,Potency,[9],inactive
Cc1c(C(=O)c2cccc3ccccc23)c2cccc3c2n1[C@H](CN1CCOCC1)CO3,Potency,[7],"inconclusive: 33.2 µM [cytotoxic, single point]"
same,Potency,[8],"inconclusive: 33.2 µM [cytotoxic, single point]"
same,Potency,[3],"inconclusive: 29.6 µM [cytotoxic, single point]"
same,Potency,[4],"inconclusive: 37.2 µM [cytotoxic, single point]"
same,Potency,[6],"inconclusive: 37.2 µM [cytotoxic, single point]"
same,Potency,[9],"inconclusive: 26.4 µM [cytotoxic, single point]"
CC1=NN=C(c2ccc(N)cc2)c2cc3c(cc2C1)OCO3,Potency,[2],inactive
same,Potency,[7],inactive
same,Potency,[3],"inconclusive: 37.2 µM [cytotoxic, single point]"
same,Potency,[5],inactive
same,Potency,[9],"inconclusive: 26.4 µM [cytotoxic, single point]"

# Not a retest: entries from further up.
smiles,measurement,setting,value
CC(=Cc1csc(C)n1)[C@@H]1C[C@H]2O[C@]2(C)CCC[C@H](C)[C@@H](O)[C@@H](C)C(=O)C(C)(C)[C@@H](O)CC(=O)O1,Potency,[7],inactive
same,Potency,[8],inactive
same,Potency,[3],inactive
